The data set has as its target T1, Cra (Escherichia coli K-12 W3110 type A) (UniProt P0ACP1).
T1 sequence (looked up, limits assumed): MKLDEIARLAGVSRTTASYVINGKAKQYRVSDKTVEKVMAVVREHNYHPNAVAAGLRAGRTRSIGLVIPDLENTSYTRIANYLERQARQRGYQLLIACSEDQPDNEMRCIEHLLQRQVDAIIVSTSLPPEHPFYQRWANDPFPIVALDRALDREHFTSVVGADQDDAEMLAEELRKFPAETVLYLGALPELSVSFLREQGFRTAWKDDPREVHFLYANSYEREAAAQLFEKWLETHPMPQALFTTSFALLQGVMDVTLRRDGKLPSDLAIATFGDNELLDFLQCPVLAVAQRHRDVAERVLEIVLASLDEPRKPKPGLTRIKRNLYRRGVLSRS
Put plainly: EMSA. Particulars: 0.5 pmol each FITC probe + 20 pmol TF (Fig 4: 0-8 pmol) in 10 ul DNA-binding buffer (composition not given, ref 38), 37 C, 20 min, PAGE with mixed probes; recombinant protein; protein details: His; label: FITC.

Construct, isoform or probe ends are uncertain for at least one entry. Tags and fusion partners may be left off the protein sequences shown.

As to “ATTATAAAGATTTGTAAATATAACCGTCTCCGGTATGTTGCCTGAGGCGGTTTTTTTGTCTCTAACGTGCGGAAAAATTTGTTCCTCTTCACATTTTTTGTACAACCGACATGCCCGTGTAGCTCACAAATATGACAGTGGCGTGAATTTTGCGCATTGACGGCAGTTATGATTCGCGGTATTGCTTAACTGTGATTGCACATTTAGTAATCACTGTTTTCTTTTCCACCAGAAACCAGTATGAGGGAAACGAGGC (double strand) [rmf promoter probe (256 bp)]”, the binding result is on record as “binds”.

On to “CGTACCGACCCCATATCGTGACGCCGCTGCTGTTGTACTAACCAAACAGGTTCCCCCTGCCATTCGCCGATTTGTAGTGCGCGCTGACCCACAAGATCGAAATTTGCCGCTTCGCCATATGGCAATTCTCCCTTCGGCAACCATAATTTTTGTTCATGGCTGACGACCCACCAGCCGTGATCTAATTTTTCAATTATACGATCCATAGCTCTTGCACTACCTTTGCATCACTGGCATGTTTAACATGGTTTTTACATTTCTCACTGAGCAGTTTTTGAATACAAACTTGCGGAGTCAATC (double strand) [rsd promoter probe (300 bp)]”, for which the binding result was “binds”.
